1 compound from PMC6150385, “The Blood-Brain Barrier Permeability of Six Indole Alkaloids from Uncariae Ramulus Cum Uncis in the MDCK-pHaMDR Cell Monolayer Model” (Molecules : A Journal of Synthetic Chemistry and Natural …, 2017) can be followed below.

A short description of the data set: Bidirectional transport across MDCK-pHaMDR cell monolayer (in vitro BBB model). Conditions: dog, MDCK-MDR1.

A word on the Papp: it is the rate of passage across a membrane or cell layer, normalised by area and donor concentration. Read a high Papp as fast passage. Take `CC(C)NCC(O)COc1ccc(CC(N)=O)cc1` (stereo not shown) [atenolol, reference compound]: the Papp at 90 min is 2.87 nm/s.
